What all share (assay): two-hybrid; Matchmaker GAL4-based two-hybrid system 3, pGBKT7 and pGADT7 constructs cotransformed into yeast AH109; selection on SD/-Leu/-Trp/-His/-Ade (QDO) and QDO with X-a-gal
Assay [1] concerns the target SlSWI3C (yeast two-hybrid fusion) (tomato (Solanum lycopersicum)).
Assay [2] addresses T1, Arabidopsis SWI3A (yeast two-hybrid fusion) (Arabidopsis) (UniProt Q8W475).
T1 sequence: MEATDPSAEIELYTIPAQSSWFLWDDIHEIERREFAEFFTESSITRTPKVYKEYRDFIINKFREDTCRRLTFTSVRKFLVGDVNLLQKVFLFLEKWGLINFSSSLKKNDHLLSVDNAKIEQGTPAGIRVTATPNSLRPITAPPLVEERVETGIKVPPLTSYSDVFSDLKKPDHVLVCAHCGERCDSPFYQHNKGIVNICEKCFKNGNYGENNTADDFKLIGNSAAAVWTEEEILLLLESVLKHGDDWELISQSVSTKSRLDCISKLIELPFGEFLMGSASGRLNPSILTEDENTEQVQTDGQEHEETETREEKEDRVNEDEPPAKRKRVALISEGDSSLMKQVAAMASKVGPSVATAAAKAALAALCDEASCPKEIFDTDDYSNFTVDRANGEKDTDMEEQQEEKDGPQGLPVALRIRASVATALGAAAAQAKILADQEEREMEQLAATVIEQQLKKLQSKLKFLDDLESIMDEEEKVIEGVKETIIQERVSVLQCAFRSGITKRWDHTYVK

Assay [3] concerns the target T2, Arabidopsis SWI3B (yeast two-hybrid fusion) (Arabidopsis) (UniProt Q84JG2).
T2 sequence: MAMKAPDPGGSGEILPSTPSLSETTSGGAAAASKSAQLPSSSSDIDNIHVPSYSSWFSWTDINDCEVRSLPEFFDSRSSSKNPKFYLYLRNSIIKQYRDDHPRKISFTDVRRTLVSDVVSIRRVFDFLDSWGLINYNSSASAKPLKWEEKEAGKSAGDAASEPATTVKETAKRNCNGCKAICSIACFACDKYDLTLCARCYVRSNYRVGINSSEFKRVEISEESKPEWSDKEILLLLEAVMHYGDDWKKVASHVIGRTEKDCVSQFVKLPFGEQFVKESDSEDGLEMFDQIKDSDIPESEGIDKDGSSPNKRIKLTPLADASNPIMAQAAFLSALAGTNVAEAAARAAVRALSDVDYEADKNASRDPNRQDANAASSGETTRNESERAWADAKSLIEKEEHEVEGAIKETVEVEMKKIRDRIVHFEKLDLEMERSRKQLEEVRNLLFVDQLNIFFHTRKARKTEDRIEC

In assay [4] the target is T3, Arabidopsis SWI3D (yeast two-hybrid fusion) (Arabidopsis) (UniProt Q8VY05).
T3 sequence: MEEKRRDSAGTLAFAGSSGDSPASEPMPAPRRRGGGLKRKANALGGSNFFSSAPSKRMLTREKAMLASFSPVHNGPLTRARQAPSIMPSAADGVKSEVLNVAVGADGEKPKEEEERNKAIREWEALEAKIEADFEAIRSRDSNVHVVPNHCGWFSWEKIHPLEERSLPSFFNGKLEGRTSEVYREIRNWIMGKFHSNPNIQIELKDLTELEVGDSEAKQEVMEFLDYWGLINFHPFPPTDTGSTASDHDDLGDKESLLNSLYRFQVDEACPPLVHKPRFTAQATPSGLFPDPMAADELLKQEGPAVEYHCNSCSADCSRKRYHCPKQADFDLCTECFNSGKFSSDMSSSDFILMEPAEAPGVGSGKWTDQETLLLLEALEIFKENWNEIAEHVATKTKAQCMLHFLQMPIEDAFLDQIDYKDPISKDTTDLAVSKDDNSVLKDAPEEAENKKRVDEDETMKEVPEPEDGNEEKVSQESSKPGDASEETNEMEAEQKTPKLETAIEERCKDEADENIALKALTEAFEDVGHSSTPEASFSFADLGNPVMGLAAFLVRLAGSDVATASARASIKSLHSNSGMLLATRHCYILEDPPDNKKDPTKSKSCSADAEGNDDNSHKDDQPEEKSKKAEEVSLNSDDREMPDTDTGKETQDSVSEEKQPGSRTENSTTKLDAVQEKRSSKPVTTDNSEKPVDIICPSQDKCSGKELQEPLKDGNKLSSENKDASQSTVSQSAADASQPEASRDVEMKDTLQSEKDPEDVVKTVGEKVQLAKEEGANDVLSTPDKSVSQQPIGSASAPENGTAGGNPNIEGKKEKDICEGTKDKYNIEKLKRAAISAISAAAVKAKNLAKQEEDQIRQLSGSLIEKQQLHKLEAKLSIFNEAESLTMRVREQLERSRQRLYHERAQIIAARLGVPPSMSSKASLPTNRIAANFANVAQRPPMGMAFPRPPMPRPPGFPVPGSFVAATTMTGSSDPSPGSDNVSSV

No constants are given. Whether binding was seen depends on the method and setting. A result given as binding can be weak or reduced; the word gives no strength. For some of these results: Sequences can lack the tags named with a protein.

The text below walks through data of article PMC6829904.

In the case of “SlSWI3B (yeast two-hybrid fusion) (from UniProt A0A3Q7G8R8)”, the binding result in assay [1] was “binds”.
In the case of “SlSWI3C (yeast two-hybrid fusion) (from UniProt A0A3Q7GUL8)”, the binding result in assay [2], in assay [3] and in assay [4] was “binds” each time.
